Measurements published in the supplement of paper PMC10060354, “Discovery of a small molecule ligand of FRS2 that inhibits invasion and tumor growth” (Cellular Oncology, 2022).
Repeats are few or missing, and single values can be far off.

Chains of the proteins cited; added tags and fusions are not shown. Lines headed by an entry give the natural chain unless they say otherwise; changes in a name come on top.
UniProt Q96RN5: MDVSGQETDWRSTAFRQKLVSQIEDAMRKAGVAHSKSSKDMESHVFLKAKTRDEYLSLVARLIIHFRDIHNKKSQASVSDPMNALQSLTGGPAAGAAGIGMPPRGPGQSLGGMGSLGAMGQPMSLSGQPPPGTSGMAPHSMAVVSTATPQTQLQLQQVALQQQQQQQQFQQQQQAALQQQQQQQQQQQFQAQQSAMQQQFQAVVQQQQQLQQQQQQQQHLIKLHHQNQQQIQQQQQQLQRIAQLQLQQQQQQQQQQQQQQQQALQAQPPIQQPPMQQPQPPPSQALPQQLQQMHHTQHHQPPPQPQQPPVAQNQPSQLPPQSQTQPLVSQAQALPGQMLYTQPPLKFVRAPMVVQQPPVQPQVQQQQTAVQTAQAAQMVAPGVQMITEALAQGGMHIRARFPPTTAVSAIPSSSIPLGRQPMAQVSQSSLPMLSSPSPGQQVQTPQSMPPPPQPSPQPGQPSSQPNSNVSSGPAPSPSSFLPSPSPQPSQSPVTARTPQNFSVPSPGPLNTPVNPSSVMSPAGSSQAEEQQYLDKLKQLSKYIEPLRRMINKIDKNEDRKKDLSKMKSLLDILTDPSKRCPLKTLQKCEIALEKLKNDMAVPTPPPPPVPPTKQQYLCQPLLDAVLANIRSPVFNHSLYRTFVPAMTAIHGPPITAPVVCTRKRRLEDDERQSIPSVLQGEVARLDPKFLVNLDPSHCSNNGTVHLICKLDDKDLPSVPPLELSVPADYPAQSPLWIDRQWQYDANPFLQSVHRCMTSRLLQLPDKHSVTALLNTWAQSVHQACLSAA
UniProt Q5W111: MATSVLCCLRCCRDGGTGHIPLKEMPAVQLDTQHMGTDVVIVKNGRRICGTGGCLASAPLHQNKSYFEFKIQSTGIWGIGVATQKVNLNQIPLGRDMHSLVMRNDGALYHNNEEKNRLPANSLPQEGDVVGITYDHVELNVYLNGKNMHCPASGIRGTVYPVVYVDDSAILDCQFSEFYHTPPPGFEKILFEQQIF
UniProt Q13868, whole entry: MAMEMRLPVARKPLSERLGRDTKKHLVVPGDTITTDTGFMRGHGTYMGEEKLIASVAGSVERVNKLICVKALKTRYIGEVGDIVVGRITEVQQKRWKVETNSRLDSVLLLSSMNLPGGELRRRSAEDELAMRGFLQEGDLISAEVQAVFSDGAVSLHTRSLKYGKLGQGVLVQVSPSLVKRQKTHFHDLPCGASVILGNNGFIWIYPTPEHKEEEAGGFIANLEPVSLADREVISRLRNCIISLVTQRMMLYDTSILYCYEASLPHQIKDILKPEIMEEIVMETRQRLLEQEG
UniProt P52756, whole entry: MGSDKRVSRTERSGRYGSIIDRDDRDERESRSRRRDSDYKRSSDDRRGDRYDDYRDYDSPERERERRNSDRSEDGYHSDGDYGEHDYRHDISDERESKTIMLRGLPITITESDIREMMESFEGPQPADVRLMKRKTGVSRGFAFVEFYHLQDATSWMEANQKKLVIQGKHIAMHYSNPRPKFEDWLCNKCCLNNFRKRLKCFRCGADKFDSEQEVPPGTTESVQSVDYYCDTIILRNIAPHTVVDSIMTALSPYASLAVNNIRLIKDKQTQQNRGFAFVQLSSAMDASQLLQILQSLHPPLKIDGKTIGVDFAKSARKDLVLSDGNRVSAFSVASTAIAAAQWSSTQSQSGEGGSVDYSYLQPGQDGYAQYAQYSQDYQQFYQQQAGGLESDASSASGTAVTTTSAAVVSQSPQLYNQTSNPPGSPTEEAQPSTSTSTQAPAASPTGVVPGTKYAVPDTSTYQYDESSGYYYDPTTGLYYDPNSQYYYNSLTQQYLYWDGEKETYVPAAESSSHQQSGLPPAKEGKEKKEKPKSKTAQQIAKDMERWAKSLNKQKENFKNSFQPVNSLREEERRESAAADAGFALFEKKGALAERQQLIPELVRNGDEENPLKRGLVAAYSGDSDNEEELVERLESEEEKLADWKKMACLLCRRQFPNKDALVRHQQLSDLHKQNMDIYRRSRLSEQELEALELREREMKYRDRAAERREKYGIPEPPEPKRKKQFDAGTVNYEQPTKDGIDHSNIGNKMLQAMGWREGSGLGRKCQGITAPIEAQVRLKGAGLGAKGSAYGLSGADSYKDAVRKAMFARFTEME
UniProt Q9H8T0: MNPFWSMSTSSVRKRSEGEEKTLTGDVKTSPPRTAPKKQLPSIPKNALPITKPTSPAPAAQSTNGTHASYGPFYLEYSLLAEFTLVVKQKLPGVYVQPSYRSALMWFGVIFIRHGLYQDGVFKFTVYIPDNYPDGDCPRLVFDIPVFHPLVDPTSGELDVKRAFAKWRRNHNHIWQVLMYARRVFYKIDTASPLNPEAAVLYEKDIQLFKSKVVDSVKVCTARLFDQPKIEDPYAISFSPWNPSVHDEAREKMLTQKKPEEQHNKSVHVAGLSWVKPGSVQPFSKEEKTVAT
UniProt Q86V48: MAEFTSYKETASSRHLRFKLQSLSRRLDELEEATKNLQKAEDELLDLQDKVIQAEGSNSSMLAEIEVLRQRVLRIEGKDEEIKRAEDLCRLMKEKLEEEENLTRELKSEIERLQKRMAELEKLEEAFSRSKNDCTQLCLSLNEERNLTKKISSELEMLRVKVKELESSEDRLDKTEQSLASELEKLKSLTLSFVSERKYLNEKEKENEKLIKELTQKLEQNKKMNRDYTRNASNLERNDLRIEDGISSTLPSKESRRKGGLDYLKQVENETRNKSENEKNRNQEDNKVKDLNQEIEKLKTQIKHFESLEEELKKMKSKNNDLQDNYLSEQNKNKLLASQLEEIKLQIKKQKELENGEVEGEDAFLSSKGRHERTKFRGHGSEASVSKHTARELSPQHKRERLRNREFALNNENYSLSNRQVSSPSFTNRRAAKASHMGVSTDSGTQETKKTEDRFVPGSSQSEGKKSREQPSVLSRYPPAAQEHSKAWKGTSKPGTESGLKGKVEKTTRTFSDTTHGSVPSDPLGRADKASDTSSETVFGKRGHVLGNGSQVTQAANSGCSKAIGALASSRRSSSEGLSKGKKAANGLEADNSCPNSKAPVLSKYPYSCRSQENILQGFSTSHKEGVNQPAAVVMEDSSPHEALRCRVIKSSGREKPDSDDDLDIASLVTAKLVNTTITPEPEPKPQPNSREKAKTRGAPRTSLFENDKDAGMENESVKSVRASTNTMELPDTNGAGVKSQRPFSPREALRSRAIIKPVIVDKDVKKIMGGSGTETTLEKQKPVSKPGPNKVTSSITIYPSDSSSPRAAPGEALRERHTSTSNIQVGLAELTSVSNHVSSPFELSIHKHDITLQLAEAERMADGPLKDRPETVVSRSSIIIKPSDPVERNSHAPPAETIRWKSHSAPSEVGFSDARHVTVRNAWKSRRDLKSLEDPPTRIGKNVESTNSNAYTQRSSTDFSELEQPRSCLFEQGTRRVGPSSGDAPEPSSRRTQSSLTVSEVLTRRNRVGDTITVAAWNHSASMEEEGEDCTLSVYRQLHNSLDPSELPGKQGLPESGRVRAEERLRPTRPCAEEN
UniProt Q8WV07: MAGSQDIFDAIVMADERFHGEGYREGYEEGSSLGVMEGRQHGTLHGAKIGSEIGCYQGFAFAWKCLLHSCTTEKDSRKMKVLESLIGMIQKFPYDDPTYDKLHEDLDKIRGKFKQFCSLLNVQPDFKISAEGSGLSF
UniProt Q9NRX5: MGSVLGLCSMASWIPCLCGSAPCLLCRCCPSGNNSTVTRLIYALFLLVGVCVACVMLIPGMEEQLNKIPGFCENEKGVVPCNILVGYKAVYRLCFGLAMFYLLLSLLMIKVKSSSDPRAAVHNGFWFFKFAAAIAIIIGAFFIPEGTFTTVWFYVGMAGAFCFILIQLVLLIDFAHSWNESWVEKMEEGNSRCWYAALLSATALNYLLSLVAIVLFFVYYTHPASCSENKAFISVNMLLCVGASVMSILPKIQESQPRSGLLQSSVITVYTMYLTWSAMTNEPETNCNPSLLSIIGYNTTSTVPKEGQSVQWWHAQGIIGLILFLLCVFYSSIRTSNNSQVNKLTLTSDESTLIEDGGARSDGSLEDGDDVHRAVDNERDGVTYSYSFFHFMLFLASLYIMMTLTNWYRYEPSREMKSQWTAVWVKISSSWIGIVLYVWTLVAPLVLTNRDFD
UniProt Q9BVC5: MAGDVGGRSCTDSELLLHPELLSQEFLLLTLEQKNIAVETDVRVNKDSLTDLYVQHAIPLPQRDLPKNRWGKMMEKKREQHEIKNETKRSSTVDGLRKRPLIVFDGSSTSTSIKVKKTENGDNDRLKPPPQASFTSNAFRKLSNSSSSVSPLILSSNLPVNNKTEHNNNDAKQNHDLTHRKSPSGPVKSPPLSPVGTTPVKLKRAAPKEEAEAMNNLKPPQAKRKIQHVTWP
UniProt O15394: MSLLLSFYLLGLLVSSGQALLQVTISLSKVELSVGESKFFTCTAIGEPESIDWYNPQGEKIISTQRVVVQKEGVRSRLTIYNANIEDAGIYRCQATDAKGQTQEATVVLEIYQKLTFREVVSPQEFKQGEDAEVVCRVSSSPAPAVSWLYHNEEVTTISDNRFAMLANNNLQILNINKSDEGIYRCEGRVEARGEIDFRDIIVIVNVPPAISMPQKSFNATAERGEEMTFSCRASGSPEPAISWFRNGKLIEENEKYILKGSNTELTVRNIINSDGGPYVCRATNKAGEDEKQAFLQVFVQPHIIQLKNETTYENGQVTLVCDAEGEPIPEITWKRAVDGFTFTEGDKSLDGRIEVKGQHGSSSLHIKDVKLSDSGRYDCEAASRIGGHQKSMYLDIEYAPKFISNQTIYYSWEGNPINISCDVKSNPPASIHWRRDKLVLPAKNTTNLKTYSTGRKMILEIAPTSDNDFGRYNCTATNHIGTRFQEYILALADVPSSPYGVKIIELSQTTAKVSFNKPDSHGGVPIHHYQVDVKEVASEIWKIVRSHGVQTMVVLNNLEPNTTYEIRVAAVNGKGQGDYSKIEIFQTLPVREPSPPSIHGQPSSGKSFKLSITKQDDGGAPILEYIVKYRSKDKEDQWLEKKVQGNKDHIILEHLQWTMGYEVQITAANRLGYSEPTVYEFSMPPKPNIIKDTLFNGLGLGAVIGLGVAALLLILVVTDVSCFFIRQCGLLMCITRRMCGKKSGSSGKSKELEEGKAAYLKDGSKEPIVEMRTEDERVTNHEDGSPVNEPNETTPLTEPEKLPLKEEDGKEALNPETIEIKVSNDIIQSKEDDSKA
UniProt Q8TDR4: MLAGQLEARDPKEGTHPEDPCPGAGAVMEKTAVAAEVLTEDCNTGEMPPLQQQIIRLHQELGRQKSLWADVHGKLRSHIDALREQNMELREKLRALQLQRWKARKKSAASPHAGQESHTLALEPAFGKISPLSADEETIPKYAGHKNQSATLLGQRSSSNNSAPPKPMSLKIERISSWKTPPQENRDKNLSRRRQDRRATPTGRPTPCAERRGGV
UniProt O43164: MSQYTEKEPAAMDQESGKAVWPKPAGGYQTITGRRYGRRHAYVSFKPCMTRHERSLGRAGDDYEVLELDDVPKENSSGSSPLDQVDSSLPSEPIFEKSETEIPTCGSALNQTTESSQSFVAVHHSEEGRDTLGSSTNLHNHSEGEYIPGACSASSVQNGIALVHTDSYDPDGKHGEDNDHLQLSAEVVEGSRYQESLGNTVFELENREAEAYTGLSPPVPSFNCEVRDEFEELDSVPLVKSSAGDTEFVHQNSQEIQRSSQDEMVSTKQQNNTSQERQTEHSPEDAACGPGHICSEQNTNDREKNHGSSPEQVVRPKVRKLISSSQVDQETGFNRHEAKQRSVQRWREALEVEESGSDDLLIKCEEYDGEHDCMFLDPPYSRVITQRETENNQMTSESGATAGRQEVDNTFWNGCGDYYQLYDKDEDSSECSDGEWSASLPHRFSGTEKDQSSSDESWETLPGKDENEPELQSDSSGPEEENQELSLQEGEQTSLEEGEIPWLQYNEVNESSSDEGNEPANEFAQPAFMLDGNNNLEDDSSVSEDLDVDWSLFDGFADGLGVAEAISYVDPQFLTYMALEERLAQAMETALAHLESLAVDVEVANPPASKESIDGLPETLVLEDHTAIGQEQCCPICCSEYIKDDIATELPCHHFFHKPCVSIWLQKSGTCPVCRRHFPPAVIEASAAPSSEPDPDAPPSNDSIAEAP
UniProt Q96S52: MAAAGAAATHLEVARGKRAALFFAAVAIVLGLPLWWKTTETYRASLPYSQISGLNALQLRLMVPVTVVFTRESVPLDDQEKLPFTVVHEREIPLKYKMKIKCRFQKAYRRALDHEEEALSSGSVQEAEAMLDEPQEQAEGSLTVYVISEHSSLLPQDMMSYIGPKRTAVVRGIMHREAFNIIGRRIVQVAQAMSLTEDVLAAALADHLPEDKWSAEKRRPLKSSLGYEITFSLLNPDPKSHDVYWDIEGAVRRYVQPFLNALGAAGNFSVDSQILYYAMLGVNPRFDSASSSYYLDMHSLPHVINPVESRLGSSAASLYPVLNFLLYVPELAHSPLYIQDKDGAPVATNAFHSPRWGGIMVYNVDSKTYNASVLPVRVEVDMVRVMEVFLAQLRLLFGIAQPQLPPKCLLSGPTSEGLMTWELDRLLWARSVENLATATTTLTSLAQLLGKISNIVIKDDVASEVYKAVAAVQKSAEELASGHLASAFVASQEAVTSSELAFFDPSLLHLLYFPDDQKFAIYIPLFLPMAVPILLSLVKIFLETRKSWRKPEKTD

Compound: [O-][N+](C(C1=C(C(O)=C2)NC(C(C=C3)=CC=C3Cl)C4C1C=CC4)=C2Cl)=O
Test: melting temperature shift (compound 7 minus DMSO); higher = compound stabilises the protein
Details: 10 µM
Protocol: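 Thermal proteome profiling (TMT mass spectrometry) in intact DAOY medulloblastoma cells or DAOY lysates treated with 10 µM compound 7 or DMSO, heated at 10 temperatures from 40.5 to 73.8 °C for 3 min. Melting curves were fitted with the Bioconductor TPP package, and the melting point difference between compound and vehicle is reported per protein (single curve per condition).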

[1] = system: DAOY cell lysate, treatment time: 20 min, 4 °C
[2] = system: intact DAOY cells, treatment time: 90 min, 37 °C

| Target | melting temperature shift [1] [°C] | melting temperature shift [2] [°C] |
| --- | --- | --- |
| UniProt Q13888 | 0.44 | – |
| MED15 (UniProt Q96RN5) | 0.588 | 1.39 |
| SPRYD7 (UniProt Q5W111) | 0.872 | -0.678 |
| DHRS4 (UniProt Q9BTZ2) | 1.18 | 0.27 |
| MTR (UniProt Q99707) | -0.672 | 0.574 |
| NCKIPSD (UniProt Q9NZQ3) | 0.87 | 0.119 |
| MED8 (UniProt Q96G25) | -1.5 | – |
| UniProt Q8N257 | 3.17 | – |
| UniProt Q9NS25 | 1.92 | – |
| UniProt Q5VWN6 | -1.81 | – |
| BAZ1B (UniProt Q9UIG0) | 0.652 | -0.436 |
| EXOSC2 (UniProt Q13868) | -1.12 | -0.452 |
| UniProt Q9BQT8 | 1.4 | – |
| UniProt P38405 | – | -0.197 |
| LRP8 (UniProt Q14114) | – | 0.678 |
| UniProt P52756 | -0.927 | 0.834 |
| UniProt Q9NQW1 | – | -3.9 |
| UniProt Q9BT92 | -0.47 | – |
| UniProt Q9H8T0 | -0.394 | 1.13 |
| PRDX3 (UniProt P30048) | 1.22 | -0.858 |
| UniProt Q2UY09 | 1.55 | – |
| ERO1A (UniProt Q96HE7) | 0.313 | 0.337 |
| METTL2B (UniProt Q6P1Q9) | -1 | 0.283 |
| SETD7 (UniProt Q8WTS6) | 0.56 | 0.271 |

Shown tab-delimited: entries from further up.
Target	melting temperature shift [1] [°C]	melting temperature shift [2] [°C]
BAZ1B (UniProt Q9UIG0)	0.652	-0.436
EXOSC2 (UniProt Q13868)	-1.12	-0.452
UniProt Q9H8T0	-0.394	1.13

Remaining list, next part.

| Target | melting temperature shift [1] [°C] | melting temperature shift [2] [°C] |
| --- | --- | --- |
| UniProt Q8N1I0 | -1.2 | – |
| UniProt Q9BQI6 | – | -0.67 |
| LUZP1 (UniProt Q86V48) | 0.528 | 1.17 |
| UniProt Q8WV07 | -0.409 | – |
| SERINC1 (UniProt Q9NRX5) | 1.66 | 1.5 |
| SPDL1 (UniProt Q96EA4) | -0.986 | 1.22 |
| FUT8 (UniProt Q9BYC5) | 1.17 | 0.533 |
| UniProt Q8WWM9 | -2.37 | – |
| HM13 (UniProt Q8TCT9) | 2.03 | -3.83 |
| TACO1 (UniProt Q9BSH4) | 4.32 | -0.78 |
| PXDN (UniProt Q92626) | 0.809 | 0.896 |
| PPP3CB (UniProt P16298) | -0.457 | -0.187 |
| MLST8 (UniProt Q9BVC4) | -0.973 | 0.0421 |
| FTO (UniProt Q9C0B1) | -0.132 | -0.825 |
| PHLDA2 (UniProt Q53GA4) | – | 0.468 |
| SFXN4 (UniProt Q6P4A7) | -2.96 | -0.252 |
| LYN (UniProt P07948) | 1.02 | -0.312 |
| UniProt P05783 | – | 1.41 |
| TAF2 (UniProt Q6P1X5) | -0.804 | -1.24 |
| SUN2 (UniProt Q9UH99) | 3.1 | -0.0206 |
| UniProt P63162 | – | 1.48 |
| ATR (UniProt Q13535) | -1.57 | -2.01 |
| C2ORF49 (UniProt Q9BVC5) | -4.99 | – |
| SFXN1 (UniProt Q9H9B4) | 0.942 | -1.26 |

| Target | melting temperature shift [1] [°C] | melting temperature shift [2] [°C] |
| --- | --- | --- |
| UniProt Q15041 | 1.5 | – |
| DARS2 (UniProt Q6PI48) | 0.24 | -3.17 |
| POLR3G (UniProt O15318) | – | -0.0808 |
| AP4B1 (UniProt Q9Y6B7) | 0.0439 | 0.14 |
| SEC11A (UniProt P67812) | 0.765 | -0.857 |
| LRRC57 (UniProt Q8N9N7) | 0.27 | 0.112 |
| S100A11 (UniProt P31949) | – | 0.00738 |
| LIMD1 (UniProt Q9UGP4) | -0.0735 | – |
| UniProt O15394 | -2.11 | -0.345 |
| UniProt Q8TDR4 | -0.195 | – |
| ZCRB1 (UniProt Q8TBF4) | 0.943 | -0.893 |
| APPL1 (UniProt Q9UKG1) | -0.723 | 0.438 |
| AP2S1 (UniProt P53680) | -0.574 | -0.412 |
| UniProt Q63ZY6 | – | -0.143 |
| ATP5J2 (UniProt P56134) | 0.285 | -1.21 |
| TCEAL1 (UniProt Q15170) | – | 0.258 |
| COPA (UniProt P53621) | -0.776 | 0.0614 |
| UniProt P18405 | -0.59 | – |
| RAB12 (UniProt Q6IQ22) | -0.0158 | 1.47 |
| MGLL (UniProt Q99685) | -0.371 | 1.79 |
| PJA2 (UniProt O43164) | 0.174 | -1.45 |
| UniProt Q9BWK5 | 2.48 | – |
| ODR4 (UniProt Q5SWX8) | -1.52 | -1.22 |
| PFKFB3 (UniProt Q16875) | 0.0729 | 0.12 |

| Target | melting temperature shift [1] [°C] | melting temperature shift [2] [°C] |
| --- | --- | --- |
| UniProt Q8NDN9 | – | -0.259 |
| CHCHD2 (UniProt Q9Y6H1) | 0.477 | 0.0827 |
| FGFR1OP (UniProt O95684) | -1.9 | 0.406 |
| WBP11 (UniProt Q9Y2W2) | -1.36 | -1.33 |
| PPIP5K2 (UniProt O43314) | 0.735 | -0.893 |
| LSM1 (UniProt O15116) | 0.202 | 0.888 |
| BCR (UniProt P11274) | -3.31 | – |
| EXOSC4 (UniProt Q9NPD3) | -0.966 | -2.15 |
| CDK5RAP2 (UniProt Q96SN8) | -0.895 | 3.15 |
| IDH3B (UniProt O43837) | -0.281 | -0.704 |
| DLGAP4 (UniProt Q9Y2H0) | 0.217 | 0.44 |
| UniProt Q8IX05 | 0.987 | – |
| UniProt Q9NZR1 | 0.783 | 3.97 |
| GDA (UniProt Q9Y2T3) | -1.13 | -1.56 |
| PDXK (UniProt O00764) | -0.811 | -0.352 |
| SMYD5 (UniProt Q6GMV2) | 0.638 | 0.124 |
| WDR62 (UniProt O43379) | -0.908 | 2.69 |
| UniProt Q9H0R5 | – | 0.411 |
| PIGS (UniProt Q96S52) | 0.666 | 0.55 |
| DCTN6 (UniProt O00399) | – | 0.23 |
| RPS6KA5 (UniProt O75582) | -0.398 | -0.134 |
